{"source": "patent US5932483A", "about": "(Northwestern University, priority 1996, dated 1999)", "assay": "peptide made by a vendor", "details": "purification step", "note": "No end group written: not given here."}
{"sequence": "LEQGENVFLQATLLC", "values": [{"measurement": "step yield", "value": 41, "unit": "%"}, {"measurement": "final HPLC purity", "setting": "analytical C18 reverse phase HPLC with UV detection, amino acid analysis", "value": "80-90%"}]}
